Measured values from PubChem BioAssay AID2685 (National Center for Advancing Translational Sciences (NCATS), 2010).
Some of the results follow. Shown are side measurements of this screen, not its main read-out; they come without a call. Compounds called inactive in the main read-out are mostly missing here. Potencies come from curve fits of mixed quality, noted in brackets.

Assay: qHTS Assay for Lipid Storage Modulators in Drosophila S3 Cells;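 as to cell number change: cells counted by Cell Tracker Red CMTPX staining in the red channel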
Conditions: BODIPY lipid droplet fluorescence, 18-24 h; for cell number change: measured here: cell count max response, cells fed with added oleic acid
Summary of the method: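 Laser-scanning cytometry quantifies lipid droplet accumulation (500–530 nm total intensity; droplet/cell object ratio) in oleic acid-fed (400 uM added) Drosophila S3 cells treated with a concentration series. 20 uM Triacsin C defined 100% inhibition.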

[1] = measured here: lipid fluorescence (Fed channel) AC50, cells fed with added oleic acid
[2] = measured here: cell number channel AC50, cells fed with added oleic acid

| SMILES | cell number change | AC50 [1] | AC50 [2] |
| --- | --- | --- | --- |
| O=C(O)[C@@H]1CCCN1S(=O)(=O)c1cccc2cccnc12 | -3.28% | 3.26 µM [rising, partial curve] |  |
| O=C(NNC(=O)c1ccncc1)Nc1ccc([N+](=O)[O-])cc1 | 6.74% |  |  |
| CCN1CCc2c(sc(NC(=O)c3ccc(S(=O)(=O)N4CCCC4)cc3)c2C(=O)NC)C1 | -62.1% | 6.51 µM [falling, partial curve] | 5.17 µM [falling, partial curve] |
| Cc1cc(=O)oc2c3c(cc(OCC(=O)NCCC(=O)O)c12)OC(C)(C)CC3 | -1.42% |  |  |
| C[C@@H]1O[C@@H](O[C@@H]2C(=O)c3c(O)cc(O)cc3O[C@H]2c2ccc(O)c(O)c2)[C@H](O)[C@H](O)[C@H]1O | 12.3% | 6.51 µM [rising, single point] |  |
| CC(C)c1nc(-c2ccccn2)no1 | 5.06% | 0.13 µM [falling, single point] |  |
| CCCN(Cc1cc2cc(C)ccc2[nH]c1=O)S(C)(=O)=O | 43.8% | 20.6 µM [rising, single point] | 0.58 µM [rising, full curve] |
| CC(=O)c1cn(Cc2ccccc2)c(=O)[nH]c1=O | -20.9% | 0.231 µM [falling, full curve] |  |
| Cc1nonc1N1CCN(Cc2cn[nH]c2-c2ccc(F)cc2F)CC1 | 17.9% |  |  |
| C/C(Cl)=C\Cn1c(NCCc2ccccc2)nc2c1c(=O)n(C)c(=O)n2C |  | 4.61 µM [falling, full curve] |  |
| Cc1onc(-c2ccccc2)c1C(=O)Nc1nc(-c2ccc(F)c(F)c2)cs1 | -10.6% |  |  |
| O=C(O)CCCCNS(=O)(=O)c1ccc(Cl)c(C(F)(F)F)c1 | 4.8% | 13 µM [falling, partial curve] |  |
| Cc1ccc(C)c(-n2c(SCC(=O)N3CCC(C(=O)O)CC3)nnc2-c2cccc(Cl)c2)c1 | -21.8% | 0.517 µM [falling, full curve] | 0.259 µM [falling, full curve, poor fit] |
| CC(NCC(=O)Nc1ccccc1C(=O)NC1CC1)c1ccc(S(N)(=O)=O)cc1 (stereo unspecified) | 15.5% | 0.82 µM [rising, full curve] |  |
| COC(=O)C1=C(C)NC2=C(C(=O)CCC2)C1c1cn(Cc2ccc(Cl)cc2Cl)nc1-c1ccccc1 (stereo unspecified) | -36.9% |  | 1.64 µM [falling, partial curve] |
| COc1cc(/C=C/C(=O)N2CCc3ccccc3C2)cc(OC)c1OC | -17.3% |  |  |
| CC(=O)Nc1sc(C)c(C)c1C(=O)OCC(=O)Nc1cc(S(=O)(=O)N2CCCCC2)ccc1Cl | 13.2% | 6.51 µM [rising, single point] |  |

Pulled one by one from the list above, 2 records:

| SMILES | cell number change | AC50 [1] | AC50 [2] |
| --- | --- | --- | --- |
| CC(C)c1nc(-c2ccccn2)no1 | 5.06% | 0.13 µM [falling, single point] |  |
| Cc1cc(=O)oc2c3c(cc(OCC(=O)NCCC(=O)O)c12)OC(C)(C)CC3 | -1.42% |  |  |
